The results in this text go back to the supplement of paper PMC10849652.

Protein sequences, listed by entry. Tags and fused reporters are not part of them. Lines headed by an entry give the natural chain unless they say otherwise; changes in a name come on top.
UniProt P00414, whole entry, looked up: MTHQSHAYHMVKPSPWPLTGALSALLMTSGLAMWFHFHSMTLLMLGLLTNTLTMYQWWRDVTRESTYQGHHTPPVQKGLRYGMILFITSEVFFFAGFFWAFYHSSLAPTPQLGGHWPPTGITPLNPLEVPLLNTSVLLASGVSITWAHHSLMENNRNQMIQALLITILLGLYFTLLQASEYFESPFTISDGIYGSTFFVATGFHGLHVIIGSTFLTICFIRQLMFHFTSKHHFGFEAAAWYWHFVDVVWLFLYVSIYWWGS
UniProt Q9H6N6: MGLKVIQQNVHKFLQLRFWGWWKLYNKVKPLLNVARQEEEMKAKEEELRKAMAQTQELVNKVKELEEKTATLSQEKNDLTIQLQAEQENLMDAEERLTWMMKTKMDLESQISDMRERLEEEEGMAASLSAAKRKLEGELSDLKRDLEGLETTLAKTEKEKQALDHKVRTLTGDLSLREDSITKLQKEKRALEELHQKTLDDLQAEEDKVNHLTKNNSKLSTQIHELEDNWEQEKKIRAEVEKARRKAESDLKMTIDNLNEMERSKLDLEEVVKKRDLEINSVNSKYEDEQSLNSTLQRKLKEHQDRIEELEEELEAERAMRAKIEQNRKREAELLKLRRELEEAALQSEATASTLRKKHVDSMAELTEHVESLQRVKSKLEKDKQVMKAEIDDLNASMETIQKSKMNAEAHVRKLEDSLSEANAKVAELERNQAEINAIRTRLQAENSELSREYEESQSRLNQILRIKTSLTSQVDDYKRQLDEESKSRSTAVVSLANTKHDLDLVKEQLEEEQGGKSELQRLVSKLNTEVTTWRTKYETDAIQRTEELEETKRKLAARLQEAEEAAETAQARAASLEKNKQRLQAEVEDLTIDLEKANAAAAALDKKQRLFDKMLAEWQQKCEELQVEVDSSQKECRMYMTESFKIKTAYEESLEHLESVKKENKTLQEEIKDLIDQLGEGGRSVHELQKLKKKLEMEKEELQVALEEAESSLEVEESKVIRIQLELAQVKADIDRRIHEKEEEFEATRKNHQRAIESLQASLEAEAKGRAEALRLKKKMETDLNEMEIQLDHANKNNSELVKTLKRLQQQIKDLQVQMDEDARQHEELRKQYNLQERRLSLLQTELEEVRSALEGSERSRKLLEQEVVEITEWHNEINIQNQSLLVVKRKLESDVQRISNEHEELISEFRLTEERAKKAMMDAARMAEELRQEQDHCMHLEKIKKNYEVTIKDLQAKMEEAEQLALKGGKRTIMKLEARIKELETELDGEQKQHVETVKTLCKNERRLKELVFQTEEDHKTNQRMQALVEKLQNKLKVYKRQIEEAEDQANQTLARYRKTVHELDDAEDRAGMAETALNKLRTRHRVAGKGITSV
UniProt Q9H2K0, whole entry, looked up: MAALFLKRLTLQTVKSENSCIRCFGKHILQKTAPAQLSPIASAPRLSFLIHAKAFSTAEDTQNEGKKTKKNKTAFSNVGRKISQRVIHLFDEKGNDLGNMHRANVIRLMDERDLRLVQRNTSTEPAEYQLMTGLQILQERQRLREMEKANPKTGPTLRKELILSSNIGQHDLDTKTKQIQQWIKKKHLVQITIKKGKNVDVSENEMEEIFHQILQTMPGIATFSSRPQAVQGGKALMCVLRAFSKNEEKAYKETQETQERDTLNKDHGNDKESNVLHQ
UniProt Q9H903: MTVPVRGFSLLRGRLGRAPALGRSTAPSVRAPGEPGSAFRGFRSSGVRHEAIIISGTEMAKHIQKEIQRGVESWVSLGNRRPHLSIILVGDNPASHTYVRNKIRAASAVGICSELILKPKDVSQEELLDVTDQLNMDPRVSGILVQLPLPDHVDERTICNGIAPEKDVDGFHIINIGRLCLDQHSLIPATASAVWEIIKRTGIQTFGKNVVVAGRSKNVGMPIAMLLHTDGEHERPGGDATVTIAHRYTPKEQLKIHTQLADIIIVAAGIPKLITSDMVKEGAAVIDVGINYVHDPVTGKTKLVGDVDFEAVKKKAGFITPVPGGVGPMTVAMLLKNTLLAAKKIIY
UniProt Q96E29: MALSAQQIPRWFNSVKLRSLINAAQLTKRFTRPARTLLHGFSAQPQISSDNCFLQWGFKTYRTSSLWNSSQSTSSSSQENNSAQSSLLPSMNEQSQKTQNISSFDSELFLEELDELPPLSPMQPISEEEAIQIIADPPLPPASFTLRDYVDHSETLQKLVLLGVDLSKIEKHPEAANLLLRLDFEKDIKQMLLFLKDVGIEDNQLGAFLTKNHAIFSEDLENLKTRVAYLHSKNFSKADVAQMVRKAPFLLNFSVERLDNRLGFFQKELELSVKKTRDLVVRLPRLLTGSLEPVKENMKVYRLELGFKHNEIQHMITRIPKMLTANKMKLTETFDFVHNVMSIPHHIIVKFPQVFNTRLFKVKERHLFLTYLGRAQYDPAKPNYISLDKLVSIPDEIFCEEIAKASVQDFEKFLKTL
MTHFD1, A0A384N5Y3, UniProt A0A384N5Y3, whole entry, looked up: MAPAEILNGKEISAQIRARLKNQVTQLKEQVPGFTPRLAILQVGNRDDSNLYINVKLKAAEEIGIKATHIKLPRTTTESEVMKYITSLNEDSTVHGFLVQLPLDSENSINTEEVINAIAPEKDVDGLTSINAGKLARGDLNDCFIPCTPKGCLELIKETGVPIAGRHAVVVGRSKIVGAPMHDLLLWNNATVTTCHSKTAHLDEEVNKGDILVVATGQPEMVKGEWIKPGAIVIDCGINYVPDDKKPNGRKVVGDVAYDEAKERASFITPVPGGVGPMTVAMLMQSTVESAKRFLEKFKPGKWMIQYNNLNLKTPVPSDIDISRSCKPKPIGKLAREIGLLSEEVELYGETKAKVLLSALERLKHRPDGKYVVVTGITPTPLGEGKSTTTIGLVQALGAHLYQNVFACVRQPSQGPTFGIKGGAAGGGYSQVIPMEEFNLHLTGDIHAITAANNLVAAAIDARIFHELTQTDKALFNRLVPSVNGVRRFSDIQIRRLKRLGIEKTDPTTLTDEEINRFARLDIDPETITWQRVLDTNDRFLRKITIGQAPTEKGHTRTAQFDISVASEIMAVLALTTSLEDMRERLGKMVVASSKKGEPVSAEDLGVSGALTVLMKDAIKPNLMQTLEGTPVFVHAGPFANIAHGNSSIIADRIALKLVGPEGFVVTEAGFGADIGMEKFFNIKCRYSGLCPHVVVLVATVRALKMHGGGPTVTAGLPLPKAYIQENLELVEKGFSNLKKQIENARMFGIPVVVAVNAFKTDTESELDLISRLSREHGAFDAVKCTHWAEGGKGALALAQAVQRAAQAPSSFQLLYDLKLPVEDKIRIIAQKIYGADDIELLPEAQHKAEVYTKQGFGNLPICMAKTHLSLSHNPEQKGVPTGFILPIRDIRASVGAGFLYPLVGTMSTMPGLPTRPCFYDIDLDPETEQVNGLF
UniProt Q96H55, whole entry, looked up: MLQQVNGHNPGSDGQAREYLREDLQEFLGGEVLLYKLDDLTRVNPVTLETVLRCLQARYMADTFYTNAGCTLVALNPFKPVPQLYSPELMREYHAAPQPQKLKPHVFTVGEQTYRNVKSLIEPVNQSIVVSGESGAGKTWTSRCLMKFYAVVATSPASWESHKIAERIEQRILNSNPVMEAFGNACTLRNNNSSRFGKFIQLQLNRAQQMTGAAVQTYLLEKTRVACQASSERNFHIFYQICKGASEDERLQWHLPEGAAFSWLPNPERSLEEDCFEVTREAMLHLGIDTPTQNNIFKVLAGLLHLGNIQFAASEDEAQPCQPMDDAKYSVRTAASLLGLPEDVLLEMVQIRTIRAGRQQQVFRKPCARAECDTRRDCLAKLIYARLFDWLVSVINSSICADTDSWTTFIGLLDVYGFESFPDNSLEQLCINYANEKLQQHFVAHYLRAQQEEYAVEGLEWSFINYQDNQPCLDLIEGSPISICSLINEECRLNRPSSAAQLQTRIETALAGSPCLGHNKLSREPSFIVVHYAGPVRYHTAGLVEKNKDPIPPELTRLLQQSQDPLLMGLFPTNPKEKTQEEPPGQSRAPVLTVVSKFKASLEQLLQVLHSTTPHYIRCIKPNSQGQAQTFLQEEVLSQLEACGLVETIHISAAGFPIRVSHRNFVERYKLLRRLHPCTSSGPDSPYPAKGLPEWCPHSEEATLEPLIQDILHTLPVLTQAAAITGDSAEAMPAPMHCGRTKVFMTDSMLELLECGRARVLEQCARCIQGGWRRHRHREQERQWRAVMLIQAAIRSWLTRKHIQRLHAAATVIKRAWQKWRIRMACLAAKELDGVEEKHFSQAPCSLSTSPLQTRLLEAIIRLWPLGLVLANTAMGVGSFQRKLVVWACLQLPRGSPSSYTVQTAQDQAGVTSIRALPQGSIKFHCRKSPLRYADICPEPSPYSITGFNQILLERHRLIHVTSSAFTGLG
UniProt Q96QG7: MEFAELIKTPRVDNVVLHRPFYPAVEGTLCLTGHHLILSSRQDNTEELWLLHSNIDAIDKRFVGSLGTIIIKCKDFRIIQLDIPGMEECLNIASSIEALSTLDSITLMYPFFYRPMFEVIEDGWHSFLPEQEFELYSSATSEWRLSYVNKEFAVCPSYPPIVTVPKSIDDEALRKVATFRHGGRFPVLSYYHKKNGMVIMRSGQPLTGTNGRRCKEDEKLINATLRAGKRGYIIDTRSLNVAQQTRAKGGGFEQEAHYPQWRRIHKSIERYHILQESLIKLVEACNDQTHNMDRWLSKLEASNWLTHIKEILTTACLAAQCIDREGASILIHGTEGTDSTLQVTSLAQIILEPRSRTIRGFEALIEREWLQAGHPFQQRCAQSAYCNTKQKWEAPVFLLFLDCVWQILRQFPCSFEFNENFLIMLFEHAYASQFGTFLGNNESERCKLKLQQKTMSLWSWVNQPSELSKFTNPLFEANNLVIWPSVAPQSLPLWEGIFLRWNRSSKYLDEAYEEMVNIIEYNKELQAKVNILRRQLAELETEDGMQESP
UniProt Q9BT17: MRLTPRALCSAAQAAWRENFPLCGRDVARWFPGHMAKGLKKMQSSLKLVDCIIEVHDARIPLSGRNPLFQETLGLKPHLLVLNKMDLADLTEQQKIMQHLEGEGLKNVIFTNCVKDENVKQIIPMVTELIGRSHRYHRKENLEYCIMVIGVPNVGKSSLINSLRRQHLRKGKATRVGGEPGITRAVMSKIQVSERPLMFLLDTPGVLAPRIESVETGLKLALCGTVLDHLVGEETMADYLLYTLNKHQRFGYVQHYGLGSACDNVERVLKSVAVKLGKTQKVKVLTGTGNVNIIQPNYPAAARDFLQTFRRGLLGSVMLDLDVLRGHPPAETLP
UniProt Q9BQG0: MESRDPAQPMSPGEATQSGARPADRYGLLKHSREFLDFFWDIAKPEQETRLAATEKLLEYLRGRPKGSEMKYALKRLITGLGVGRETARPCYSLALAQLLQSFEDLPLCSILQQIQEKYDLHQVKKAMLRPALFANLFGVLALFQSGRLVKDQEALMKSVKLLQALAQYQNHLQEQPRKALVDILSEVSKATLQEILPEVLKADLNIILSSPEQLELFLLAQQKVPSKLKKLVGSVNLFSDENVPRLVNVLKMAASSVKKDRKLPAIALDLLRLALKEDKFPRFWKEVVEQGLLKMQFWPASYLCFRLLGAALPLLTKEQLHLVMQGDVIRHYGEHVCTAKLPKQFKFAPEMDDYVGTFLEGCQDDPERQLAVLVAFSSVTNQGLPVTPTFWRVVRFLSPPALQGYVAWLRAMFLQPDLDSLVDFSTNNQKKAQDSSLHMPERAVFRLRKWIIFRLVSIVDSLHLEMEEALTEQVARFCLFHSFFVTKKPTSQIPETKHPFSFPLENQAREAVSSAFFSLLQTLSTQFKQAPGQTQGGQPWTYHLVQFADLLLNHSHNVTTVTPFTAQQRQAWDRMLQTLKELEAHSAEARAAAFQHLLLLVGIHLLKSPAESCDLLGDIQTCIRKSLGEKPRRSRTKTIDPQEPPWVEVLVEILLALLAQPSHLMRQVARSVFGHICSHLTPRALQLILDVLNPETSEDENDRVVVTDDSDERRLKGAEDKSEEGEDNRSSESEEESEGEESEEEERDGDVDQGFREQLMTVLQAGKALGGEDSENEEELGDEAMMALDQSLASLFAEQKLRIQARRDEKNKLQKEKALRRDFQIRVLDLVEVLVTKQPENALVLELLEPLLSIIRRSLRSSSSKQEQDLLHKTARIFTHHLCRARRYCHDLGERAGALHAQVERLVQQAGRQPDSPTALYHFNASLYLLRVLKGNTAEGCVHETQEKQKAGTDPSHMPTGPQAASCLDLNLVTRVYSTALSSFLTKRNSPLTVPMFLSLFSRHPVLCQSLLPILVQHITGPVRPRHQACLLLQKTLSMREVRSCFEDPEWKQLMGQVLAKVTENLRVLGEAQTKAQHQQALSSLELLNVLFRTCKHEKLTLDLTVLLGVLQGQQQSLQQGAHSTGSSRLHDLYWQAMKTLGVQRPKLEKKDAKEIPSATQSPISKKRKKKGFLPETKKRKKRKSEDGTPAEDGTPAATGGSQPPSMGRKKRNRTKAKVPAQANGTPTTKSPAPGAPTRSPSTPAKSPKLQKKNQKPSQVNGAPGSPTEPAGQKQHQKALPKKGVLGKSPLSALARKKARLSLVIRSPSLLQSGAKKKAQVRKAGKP

The other results are listed elsewhere or left out.

Compound in one experiment: CS(=O)(=O)c1ccc(-c2cnc(N)c(C(=O)Nc3ccccc3)n2)cc1
Put plainly: log2 fold change, soluble protein after heating vs DMSO (PISA); higher = thermal stabilisation; K562 cells, 10 uM, 30 min; active = over 0.2 and 3.5 SD of the protein, either way, in both replicates (recomputed). Put shortly: (§1)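 Thermal stability values are relative to control samples and come from duplicates. They are expressed as log2 fold changes. For measurement, K562 cells (2×10^6 cells/mL) received 10 μM compound for 30 min, and aliquots were heated for 3 min over 48°C-58°C, pooled, and extracted at 4°C in PBS with 0.5% NP-40. Soluble protein, the supernatant after 21,000xg for 90 min, was quantified by TMTpro 16plex LC-MS/MS with equalised channel sums.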
With MT-CO3 (UniProt P00414), the log2 fold change is inactive: -0.094.
On the same count and under the same terms, the same measure for MUC7 (UniProt Q8TAX7): inactive: 0.316.
Still for that read-out and setting: the same measure for MYO18B isoform 3 (UniProt Q8IUG5): inactive: 0.322; for MYH16 (UniProt Q9H6N6): inactive: -0.33.
In the case of MYL6 (UniProt G3V1V0), the log2 fold change is inactive: -0.21.
Consider MTAP isoform 2 (UniProt Q13126), for which the log2 fold change was inactive: 0.059.
Same read-out and setting: next, MSANTD2 (UniProt Q6P1R3): inactive: 0.295.
On the same count and under the same terms, next, MYLK (UniProt Q15746): inactive: 0.279.
Still for that read-out and setting: the same measure for MTMR4 (UniProt Q9NYA4): inactive: 0.001; for MTFMT (UniProt Q96DP5): inactive: 0.299; for MT-CO1 (UniProt P00395): inactive: 0.088.
For MTIF3 (UniProt Q9H2K0), the log2 fold change was inactive: -0.152.
Still for that read-out and setting: the same measure for MTHFD2L (UniProt Q9H903): inactive: 0.069.
The same measure, in the same setting: the same measure for MYNN (UniProt Q9NPC7): inactive: 0.242; for MTA3 (UniProt Q9BTC8): inactive: -0.142; for MTERF3 (UniProt Q96E29): inactive: -0.339.
The same measure, in the same setting: the same measure for MRPS36 (UniProt D6R941): inactive: 0.253.
Regarding MTIF2 (UniProt P46199), the log2 fold change is inactive: -0.137.
Same read-out and setting: next, MTHFD1, A0A384N5Y3: inactive: 0.109.

Compound in the next experiment: C[C@@H](Oc1cc(-c2cnn(C3CCNCC3)c2)cnc1N)c1c(Cl)ccc(F)c1Cl [crizotinib]
Described as above. Put shortly:
as §1
With MT-CO3 (UniProt P00414), the log2 fold change is inactive: -0.097.
Same read-out and setting: the same measure for MYO19 (UniProt Q96H55): inactive: 0.047; for MYH16 (UniProt Q9H6N6): inactive: -0.097.
On the same count and under the same terms, the same measure for MTAP isoform 2 (UniProt Q13126): inactive: 0.003; for MTDH (UniProt E5RJU9): inactive: -0.258; for MTMR9 (UniProt Q96QG7): inactive: 0.022.
On the same count and under the same terms, next, MYLK (UniProt Q15746): inactive: 0.027; MTMR4 (UniProt Q9NYA4): inactive: -0.266.
With MT-CO1 (UniProt P00395), the log2 fold change is inactive: 0.053.
As for MTG1 (UniProt Q9BT17), the log2 fold change was inactive: 0.005.
Same read-out and setting: next, MTURN (UniProt Q8N3F0): inactive: 0.094; MYL3 (UniProt P08590): inactive: 0.024.
The same measure, in the same setting: the same measure for MT-ND3 (UniProt P03897): inactive: 0.018; for MYBBP1A isoform 2 (UniProt Q9BQG0): inactive: -0.346; for MT-ND2 (UniProt P03891): inactive: 0.096.

Compound in another experiment: C[C@@H]1COCCN1C2=NC(=NC(=C2)C3(CC3)S(=O)(=O)C)C4=C5C=CNC5=CC=C4
The experiment is described as above. The method, boiled down: as §1
MUC7 (UniProt Q8TAX7): the log2 fold change is inactive: -0.491.
The same measure, in the same setting: next, MYO18B isoform 3 (UniProt Q8IUG5): inactive: 0.088; MYO19 (UniProt Q96H55): inactive: -0.215.
On the same count and under the same terms, next, MSANTD2 (UniProt Q6P1R3): inactive: 0.089.
Same read-out and setting: next, MTRES1 (UniProt Q9P0P8): inactive: 0.124; MTRF1L (UniProt Q9UGC7): inactive: -0.068.
Take MTMR9 (UniProt Q96QG7): the log2 fold change was inactive: -0.047.
Same read-out and setting: the same measure for MTFMT (UniProt Q96DP5): inactive: 0.272; for MTG1 (UniProt Q9BT17): inactive: 0.205.
Take MTIF3 (UniProt Q9H2K0): the log2 fold change was inactive: -0.027.
The same measure, in the same setting: the same measure for MTHFD2L (UniProt Q9H903): inactive: -0.061.
On the same count and under the same terms, next, MTA3 (UniProt Q9BTC8): inactive: -0.127; MRPS36 (UniProt D6R941): inactive: -0.012.
On to MTIF2 (UniProt P46199), for which the log2 fold change is inactive: 0.337.
Still for that read-out and setting: the same measure for MYBBP1A isoform 2 (UniProt Q9BQG0): inactive: -0.177.
Same read-out and setting: next, MYH6 (UniProt P13533): inactive: -0.01; MTHFD1, A0A384N5Y3: inactive: 0.117.

Compound in the next experiment: C[C@H](C1=CC=C(C=C1)C(=O)NC2=C3C=CNC3=NC=C2)N
The description is as above. Put shortly:
as §1
For the target MT-CO3 (UniProt P00414), the log2 fold change is inactive: -0.061.
On to MYO19 (UniProt Q96H55), for which the log2 fold change was inactive: 0.491.
For the target MYH16 (UniProt Q9H6N6), the log2 fold change is inactive: -0.012.
Still for that read-out and setting: the same measure for MYL6 (UniProt G3V1V0): inactive: -0.018; for MTRF1L (UniProt Q9UGC7): inactive: -0.21; for MTHFSD (UniProt Q2M296): inactive: 0.292.
On the same count and under the same terms, next, MYH3 (UniProt P11055): inactive: -0.09; MTMR9 (UniProt Q96QG7): inactive: -0.031.
In the case of MYLK (UniProt Q15746), the log2 fold change is inactive: 0.107.
The same measure, in the same setting: the same measure for MT-CO1 (UniProt P00395): inactive: 0.015.
Still for that read-out and setting: next, MTG1 (UniProt Q9BT17): inactive: 0.137; MTIF3 (UniProt Q9H2K0): inactive: 0.041; MTHFD2L (UniProt Q9H903): inactive: -0.081.
The same measure, in the same setting: the same measure for MYL3 (UniProt P08590): inactive: 0.028; for MYBBP1A isoform 2 (UniProt Q9BQG0): inactive: 0.489.
Turning to MYH6 (UniProt P13533), the log2 fold change was inactive: -0.258.
On to MT-ND2 (UniProt P03891), for which the log2 fold change was inactive: -0.028.
The same measure, in the same setting: the same measure for MTHFD1, A0A384N5Y3: inactive: -0.008.
Consider MTHFD1L (UniProt B7ZM99), for which the log2 fold change is inactive: 0.257.
